Measured values reported in paper PMC8201255, “A Combined Experimental and Theoretical Study of Nitrofuran Antibiotics: Crystal Structures, DFT Computations, Sublimation and Solution Thermodynamics” (Molecules, 2021).
Like-named read-outs stand apart in the source and are kept apart here.

Tests used:
[1] = for TΔSsol0 / ΔGsol0 / ΔHsol0 / ΔSsol0: dissolution; for ςHsolv: relative fraction of solvation enthalpy; for ςTSsolv: relative fraction of solvation entropy; for TΔSsolv0 / ΔGsolv0 / ΔHsolv0 / ΔSsolv0: solvation
[2] = Procedure: All the solubility experiments were carried out using the analytical isothermal shake-flask method. […] In brief, an excess amount of API was added to triplicate Pyrex glass tubes containing the respective dissolution media. […] The concentrations of the dissolved APIs were measured spectrophotometrically using a Cary 50 UV-vis spectrophotometer (Varian, Australia) with an accuracy of 2–4%.
Conversion of molarity to mole fraction concentration scale was produced using Equation (10):(10) X2=M2S2/S2(M2−M1)+1000ρ where S2 is molarity of API (mol·L^−1), M1 and M2 are the molar masses of solvent and solute, respectively, and ρ (g·cm^−3) is the density of the pure solvents. The mole fraction solubilities for buffer solutions were calculated taking into account the buffer compositions. Densities of buffer solutions (pH 2.0 and 7.4) were measured and published early.
(§1) The results are stated as the average of at least three replicated experiments.

[3] = remark: listed apart in the source
Procedure: Details of the technique are given in the literature. In brief: a flow of the inert gas (N2) through the tube transported the saturated vapor of the sample under investigation at a constant temperature and flow rate. The sample vapor is completely condensed at some point downstream. The sample vapor pressure at this temperature was calculated from the sublimated sample amount and the volume of the inert gas used. The mass of sublimated substance was determined using a spectrophotometer method by means of spectrophotometer Cary-50 (Varian, Australia).
The equipment was calibrated with benzoic acid, as specified in earlier work of our research group.
Absolute vapor pressures for compounds are usually approximated by the Clarke–Glew equation [38].
The value of the sublimation enthalpy is calculated by the Clausius–Clayperon equation:(7) ΔcrgHm0(T)=−R⋅(∂(lnp)/∂(1/T))
The sublimation entropy at a given temperature T is calculated by the following relation:(8) ΔcrgSm0(T)=(ΔcrgHm0(T)−ΔcrgGm0(T))/T with ΔcrgGm0(T)=−RTln(p/p0) , where p0 is the standard pressure (1 × 10^5 Pa).
For experimental reasons, the sublimation data are obtained at high temperatures. However, in comparison with the effusion methods, the temperatures are much lower, which makes extrapolation to room conditions easier.
Van der Waals molecular volumes ( V^vdw ) were estimated by the program GEPOL [50] using atom radiuses proposed by Kitaigorodskii. The free molecular volume in the crystal lattice was calculated on the basis of the single crystal X-ray diffraction data:(14) V^free=V^mol−V^vdw where V^mol is the molecular volume in crystal lattice, which is estimated by the equation:(15) V^mol=V^cell/Z where V^cell is the unit cell volume and Z is the number of molecules in the unit cell.

[4] = stirring the suspension for 72 h
Excerpt: as §1

[5] = heating 10 K·min^−1

With `O=C1OCCN1/N=C/c1ccc([N+](=O)[O-])o1` [FZL, furazolidone] the TΔSsol0 ([1]; 1-octanol, 298.15 K) was 5.19 kcal/mol, the ΔGsol0 ([1]; 1-octanol, 298.15 K) was 6.62 kcal/mol and the ΔHsol0 ([1]; 1-octanol, 298.15 K) was 11.8 ± 1.05 kcal/mol. For the same compound, the ΔSsol0 ([1]; 1-octanol, 298.15 K) was 72.6 ± 5.2 J·K^−1·mol^−1, the TΔSsol0 ([1]; buffer pH 2.0, 298.15 K) was 2.51 kcal/mol and the ΔGsol0 ([1]; buffer pH 2.0, 298.15 K) was 7.48 kcal/mol. It also gave a ΔHsol0 ([1]; buffer pH 2.0, 298.15 K) of 9.99 ± 0.765 kcal/mol, a ΔSsol0 ([1]; buffer pH 2.0, 298.15 K) of 35.4 ± 4.0 J·K^−1·mol^−1 and a TΔSsol0 ([1]; buffer pH 7.4, 298.15 K) of 2.75 kcal/mol. It also gave a ΔGsol0 ([1]; buffer pH 7.4, 298.15 K) of 7.48 kcal/mol, a ΔHsol0 ([1]; buffer pH 7.4, 298.15 K) of 10.2 ± 0.669 kcal/mol and a ΔSsol0 ([1]; buffer pH 7.4, 298.15 K) of 38.4 ± 4.0 J·K^−1·mol^−1. It also gave a ςHsolv ([1]; 1-octanol, 298.15 K) of 70.9%, a ςHsolv ([1]; buffer pH 2.0, 298.15 K) of 66.5% and a ςHsolv ([1]; buffer pH 7.4, 298.15 K) of 66.7%. The ςTSsolv ([1]; 1-octanol, 298.15 K) was 29.1%, the ςTSsolv ([1]; buffer pH 2.0, 298.15 K) was 33.5% and the ςTSsolv ([1]; buffer pH 7.4, 298.15 K) was 33.3%. It also gave a TΔSsolv0 ([1]; 1-octanol, 298.15 K) of -7.7 kcal/mol, a ΔGsolv0 ([1]; 1-octanol, 298.15 K) of -11.1 kcal/mol and a ΔHsolv0 ([1]; 1-octanol, 298.15 K) of -18.8 kcal/mol. For the same compound, the ΔSsolv0 ([1]; 1-octanol, 298.15 K) was −108.0 J·K^−1·mol^−1, the TΔSsolv0 ([1]; buffer pH 2.0, 298.15 K) was -10.3 kcal/mol and the ΔGsolv0 ([1]; buffer pH 2.0, 298.15 K) was -10.2 kcal/mol. The ΔHsolv0 ([1]; buffer pH 2.0, 298.15 K) was -20.6 kcal/mol, the ΔSsolv0 ([1]; buffer pH 2.0, 298.15 K) was −145.2 J·K^−1·mol^−1 and the TΔSsolv0 ([1]; buffer pH 7.4, 298.15 K) was -10.1 kcal/mol. For the same compound, the ΔGsolv0 ([1]; buffer pH 7.4, 298.15 K) was -10.2 kcal/mol, the ΔHsolv0 ([1]; buffer pH 7.4, 298.15 K) was -20.3 kcal/mol and the ΔSsolv0 ([1]; buffer pH 7.4, 298.15 K) was −142.2 J·K^−1·mol^−1. The “X2 (solubility)” value ([2]; pH 2) was 3.35·10^6 mol.frac, the “X2 (solubility)” value ([2]; pH 7.4) was 3.31·10^6 mol.frac and the “298.15⋅ΔcrgSm0(298.15K)” value ([3]; 298.15 K) was 12.9 kcal/mol. For the same compound, the “ΔcrgGm0(298.15), sublimation Gibbs energy” value ([3]; 298.15 K) was 17.7 kcal/mol, the “ΔcrgHm0(298.15K), sublimation enthalpy” value ([3]; 298.15 K) was 30.57 ± 0.263 kcal/mol and the “ΔcrgSm0(298.15K), sublimation entropy” value ([3]; 298.15 K) was 180.6 ± 4.6 J·mol^−1·K^−1. For the same compound, the “ΔcrgHm0(T), sublimation enthalpy” value ([3]; at experimental temperature T) was 29.16 ± 0.263 kcal/mol, the ςH ([3]; enthalpy term of sublimation, 298.15 K) was 70.4% and the ςTS ([3]; entropy term of sublimation, 298.15 K) was 29.6%. For the same compound, the “p(298.15K), saturated vapor pressure” value ([3]; extrapolated to 298.15 K) was 1.12·10^−8 Pa, the “β = V^free/V^vdw” value ([3]; free volume in the crystal lattice over van der Waals volume) was 37.5% and the “hydrate formation in suspension” value [4] was “not found to form stable hydrates”. The “thermal stability (DSC/TG curves)” value [5] was “stable up to the start of the sample melting”.
